Measurements reported in the supplement of paper PMC6411743.
± gives the standard deviation of the averaged measurements. This is a selection; strong and weak results do not stand in their true shares. Most values lie at the level of the controls, where differences are scatter.

The chains behind the UniProt entries cited, without tags or fusion partners. Where a name states a change or a piece, a line headed by the entry shows the natural chain unless it says otherwise.
UniProt Q96D96: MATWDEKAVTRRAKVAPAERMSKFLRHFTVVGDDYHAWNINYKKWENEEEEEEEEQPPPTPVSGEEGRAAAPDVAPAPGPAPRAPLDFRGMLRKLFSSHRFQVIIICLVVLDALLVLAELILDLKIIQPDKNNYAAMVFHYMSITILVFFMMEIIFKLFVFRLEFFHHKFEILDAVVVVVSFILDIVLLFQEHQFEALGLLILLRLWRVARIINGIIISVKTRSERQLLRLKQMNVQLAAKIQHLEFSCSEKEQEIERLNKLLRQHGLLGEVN
UniProt Q96LD8: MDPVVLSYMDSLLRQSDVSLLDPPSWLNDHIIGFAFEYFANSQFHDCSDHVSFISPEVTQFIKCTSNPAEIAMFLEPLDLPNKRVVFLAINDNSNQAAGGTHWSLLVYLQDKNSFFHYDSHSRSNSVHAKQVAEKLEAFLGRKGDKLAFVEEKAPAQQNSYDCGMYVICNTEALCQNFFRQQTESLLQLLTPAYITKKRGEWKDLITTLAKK
UniProt Q96MX6, whole entry: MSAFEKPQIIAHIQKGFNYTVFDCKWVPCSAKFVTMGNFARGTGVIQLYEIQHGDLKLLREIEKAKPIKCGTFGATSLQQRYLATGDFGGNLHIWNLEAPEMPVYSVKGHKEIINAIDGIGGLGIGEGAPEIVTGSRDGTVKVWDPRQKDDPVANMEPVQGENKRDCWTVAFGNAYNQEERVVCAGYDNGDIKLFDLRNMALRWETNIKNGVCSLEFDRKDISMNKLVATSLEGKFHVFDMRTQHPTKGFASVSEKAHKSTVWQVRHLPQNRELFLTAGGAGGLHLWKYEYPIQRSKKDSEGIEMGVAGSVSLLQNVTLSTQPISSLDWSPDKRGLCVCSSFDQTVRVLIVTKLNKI
UniProt Q93052: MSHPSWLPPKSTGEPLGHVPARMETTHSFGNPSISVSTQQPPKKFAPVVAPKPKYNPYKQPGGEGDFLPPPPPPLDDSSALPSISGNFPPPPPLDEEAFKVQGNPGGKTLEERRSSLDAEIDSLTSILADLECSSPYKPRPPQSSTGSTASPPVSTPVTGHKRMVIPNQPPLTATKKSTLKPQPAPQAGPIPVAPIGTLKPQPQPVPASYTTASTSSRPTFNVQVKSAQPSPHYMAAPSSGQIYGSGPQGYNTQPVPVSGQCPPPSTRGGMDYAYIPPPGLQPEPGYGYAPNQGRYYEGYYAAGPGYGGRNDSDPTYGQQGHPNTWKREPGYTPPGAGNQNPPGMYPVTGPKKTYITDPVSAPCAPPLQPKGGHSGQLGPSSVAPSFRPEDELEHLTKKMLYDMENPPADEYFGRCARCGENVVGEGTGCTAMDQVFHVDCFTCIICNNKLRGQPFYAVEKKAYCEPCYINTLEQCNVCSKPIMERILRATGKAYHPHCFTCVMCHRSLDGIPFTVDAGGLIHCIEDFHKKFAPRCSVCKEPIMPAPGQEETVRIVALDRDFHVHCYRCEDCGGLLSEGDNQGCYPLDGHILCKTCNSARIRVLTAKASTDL
UniProt Q96C90: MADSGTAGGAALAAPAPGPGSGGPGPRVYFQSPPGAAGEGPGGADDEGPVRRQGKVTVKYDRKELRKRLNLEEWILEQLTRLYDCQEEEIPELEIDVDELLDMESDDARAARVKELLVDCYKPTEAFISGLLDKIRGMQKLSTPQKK
UniProt Q96G28: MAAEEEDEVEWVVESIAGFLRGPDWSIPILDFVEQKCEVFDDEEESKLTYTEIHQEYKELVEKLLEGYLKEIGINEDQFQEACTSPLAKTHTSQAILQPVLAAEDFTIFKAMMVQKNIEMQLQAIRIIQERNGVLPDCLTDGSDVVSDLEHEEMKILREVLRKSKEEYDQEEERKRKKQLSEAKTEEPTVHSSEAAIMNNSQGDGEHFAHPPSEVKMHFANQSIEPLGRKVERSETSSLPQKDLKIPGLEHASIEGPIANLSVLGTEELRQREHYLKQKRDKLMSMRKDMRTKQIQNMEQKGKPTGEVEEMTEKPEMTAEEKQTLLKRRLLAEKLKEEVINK
UniProt Q96NC0: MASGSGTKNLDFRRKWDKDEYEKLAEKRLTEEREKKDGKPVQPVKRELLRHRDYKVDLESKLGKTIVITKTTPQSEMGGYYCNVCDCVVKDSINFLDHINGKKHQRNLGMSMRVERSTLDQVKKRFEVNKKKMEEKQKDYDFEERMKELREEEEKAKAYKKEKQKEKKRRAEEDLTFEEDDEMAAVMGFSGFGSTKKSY
UniProt Q96FX7: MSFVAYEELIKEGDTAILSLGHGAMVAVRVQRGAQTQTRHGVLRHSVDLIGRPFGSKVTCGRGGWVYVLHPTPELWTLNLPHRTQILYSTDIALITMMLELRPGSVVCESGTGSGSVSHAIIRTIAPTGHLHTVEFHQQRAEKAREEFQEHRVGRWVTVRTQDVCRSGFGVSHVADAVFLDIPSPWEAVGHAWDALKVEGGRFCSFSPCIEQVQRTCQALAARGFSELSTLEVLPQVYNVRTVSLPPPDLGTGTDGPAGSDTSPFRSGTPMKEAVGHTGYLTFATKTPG
UniProt Q96EB6: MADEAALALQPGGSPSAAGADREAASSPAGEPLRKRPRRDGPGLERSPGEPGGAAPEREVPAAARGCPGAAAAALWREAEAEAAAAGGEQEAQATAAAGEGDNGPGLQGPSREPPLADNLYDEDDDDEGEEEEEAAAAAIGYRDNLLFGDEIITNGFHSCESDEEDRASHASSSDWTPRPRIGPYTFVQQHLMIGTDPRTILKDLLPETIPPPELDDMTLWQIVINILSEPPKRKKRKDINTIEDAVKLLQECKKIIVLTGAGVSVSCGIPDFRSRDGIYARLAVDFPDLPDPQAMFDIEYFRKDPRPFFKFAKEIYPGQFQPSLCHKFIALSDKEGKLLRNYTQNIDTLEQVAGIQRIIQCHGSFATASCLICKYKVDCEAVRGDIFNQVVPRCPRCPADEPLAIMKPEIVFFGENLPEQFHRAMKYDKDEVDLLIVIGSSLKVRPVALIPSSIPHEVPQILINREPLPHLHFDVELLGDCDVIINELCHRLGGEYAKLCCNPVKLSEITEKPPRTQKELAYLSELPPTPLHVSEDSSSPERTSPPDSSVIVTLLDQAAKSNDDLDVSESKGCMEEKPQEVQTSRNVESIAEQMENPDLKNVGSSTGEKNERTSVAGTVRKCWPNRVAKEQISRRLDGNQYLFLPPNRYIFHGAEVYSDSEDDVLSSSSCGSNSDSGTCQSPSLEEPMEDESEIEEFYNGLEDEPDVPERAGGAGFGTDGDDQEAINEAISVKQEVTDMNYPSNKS
UniProt Q96JP5: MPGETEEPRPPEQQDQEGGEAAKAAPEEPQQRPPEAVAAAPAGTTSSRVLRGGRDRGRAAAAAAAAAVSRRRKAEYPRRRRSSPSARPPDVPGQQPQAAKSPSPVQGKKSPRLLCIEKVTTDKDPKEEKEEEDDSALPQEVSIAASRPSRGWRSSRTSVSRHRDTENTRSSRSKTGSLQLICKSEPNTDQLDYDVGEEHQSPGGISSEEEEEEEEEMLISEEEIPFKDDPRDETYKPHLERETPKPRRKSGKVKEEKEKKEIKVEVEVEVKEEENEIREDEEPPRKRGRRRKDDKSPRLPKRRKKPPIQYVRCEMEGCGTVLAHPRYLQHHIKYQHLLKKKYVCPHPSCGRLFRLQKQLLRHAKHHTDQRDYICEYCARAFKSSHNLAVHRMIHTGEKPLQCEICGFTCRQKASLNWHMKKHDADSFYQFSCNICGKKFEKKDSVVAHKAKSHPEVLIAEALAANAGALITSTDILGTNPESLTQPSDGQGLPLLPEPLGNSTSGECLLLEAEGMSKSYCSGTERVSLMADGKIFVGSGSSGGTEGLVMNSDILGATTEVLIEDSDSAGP
UniProt Q96AG3: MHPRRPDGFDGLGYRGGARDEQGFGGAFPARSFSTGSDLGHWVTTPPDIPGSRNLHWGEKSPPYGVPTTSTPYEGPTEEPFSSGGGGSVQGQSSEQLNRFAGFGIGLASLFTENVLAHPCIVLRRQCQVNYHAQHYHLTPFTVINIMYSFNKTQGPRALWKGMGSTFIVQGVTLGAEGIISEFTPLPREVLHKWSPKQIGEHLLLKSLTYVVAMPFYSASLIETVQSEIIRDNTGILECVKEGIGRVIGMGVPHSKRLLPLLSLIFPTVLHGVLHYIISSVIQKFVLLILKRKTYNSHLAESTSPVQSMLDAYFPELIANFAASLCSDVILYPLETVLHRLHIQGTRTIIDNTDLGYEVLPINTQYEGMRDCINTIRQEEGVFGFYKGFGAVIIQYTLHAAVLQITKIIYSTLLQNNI
UniProt Q969F1: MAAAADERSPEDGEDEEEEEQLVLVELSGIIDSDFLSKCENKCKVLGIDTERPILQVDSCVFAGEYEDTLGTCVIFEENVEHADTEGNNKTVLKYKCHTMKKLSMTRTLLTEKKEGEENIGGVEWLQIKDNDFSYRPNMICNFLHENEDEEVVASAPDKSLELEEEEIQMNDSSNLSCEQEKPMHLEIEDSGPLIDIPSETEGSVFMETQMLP
UniProt Q96I59: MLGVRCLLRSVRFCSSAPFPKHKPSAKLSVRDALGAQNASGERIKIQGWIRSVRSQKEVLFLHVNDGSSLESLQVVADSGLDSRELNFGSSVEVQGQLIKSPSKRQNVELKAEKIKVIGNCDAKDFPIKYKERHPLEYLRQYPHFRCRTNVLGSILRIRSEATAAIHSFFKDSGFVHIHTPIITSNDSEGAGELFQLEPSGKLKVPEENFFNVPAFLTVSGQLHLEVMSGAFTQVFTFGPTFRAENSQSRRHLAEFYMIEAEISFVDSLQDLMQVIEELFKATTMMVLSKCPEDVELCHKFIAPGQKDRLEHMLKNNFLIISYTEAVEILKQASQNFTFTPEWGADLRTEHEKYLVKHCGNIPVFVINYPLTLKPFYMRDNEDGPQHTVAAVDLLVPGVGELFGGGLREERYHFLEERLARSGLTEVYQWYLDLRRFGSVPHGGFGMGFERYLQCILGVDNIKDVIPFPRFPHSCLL
UniProt Q96BP3: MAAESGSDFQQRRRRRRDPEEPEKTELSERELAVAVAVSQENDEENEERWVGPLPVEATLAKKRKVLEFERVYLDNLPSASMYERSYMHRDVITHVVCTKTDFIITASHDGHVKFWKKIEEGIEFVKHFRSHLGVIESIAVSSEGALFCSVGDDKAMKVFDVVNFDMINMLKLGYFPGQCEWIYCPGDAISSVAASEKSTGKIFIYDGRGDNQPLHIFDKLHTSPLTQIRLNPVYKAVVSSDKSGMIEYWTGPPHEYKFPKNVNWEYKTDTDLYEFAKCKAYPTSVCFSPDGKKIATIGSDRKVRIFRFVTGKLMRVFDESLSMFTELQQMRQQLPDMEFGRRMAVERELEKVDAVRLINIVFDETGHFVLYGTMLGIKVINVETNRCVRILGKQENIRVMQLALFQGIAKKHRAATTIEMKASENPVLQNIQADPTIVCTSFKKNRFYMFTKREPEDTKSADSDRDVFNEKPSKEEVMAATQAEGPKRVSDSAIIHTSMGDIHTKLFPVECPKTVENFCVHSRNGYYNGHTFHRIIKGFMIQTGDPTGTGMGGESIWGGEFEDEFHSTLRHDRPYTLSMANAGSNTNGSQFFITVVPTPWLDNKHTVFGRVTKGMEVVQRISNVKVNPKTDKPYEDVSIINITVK
UniProt Q93100: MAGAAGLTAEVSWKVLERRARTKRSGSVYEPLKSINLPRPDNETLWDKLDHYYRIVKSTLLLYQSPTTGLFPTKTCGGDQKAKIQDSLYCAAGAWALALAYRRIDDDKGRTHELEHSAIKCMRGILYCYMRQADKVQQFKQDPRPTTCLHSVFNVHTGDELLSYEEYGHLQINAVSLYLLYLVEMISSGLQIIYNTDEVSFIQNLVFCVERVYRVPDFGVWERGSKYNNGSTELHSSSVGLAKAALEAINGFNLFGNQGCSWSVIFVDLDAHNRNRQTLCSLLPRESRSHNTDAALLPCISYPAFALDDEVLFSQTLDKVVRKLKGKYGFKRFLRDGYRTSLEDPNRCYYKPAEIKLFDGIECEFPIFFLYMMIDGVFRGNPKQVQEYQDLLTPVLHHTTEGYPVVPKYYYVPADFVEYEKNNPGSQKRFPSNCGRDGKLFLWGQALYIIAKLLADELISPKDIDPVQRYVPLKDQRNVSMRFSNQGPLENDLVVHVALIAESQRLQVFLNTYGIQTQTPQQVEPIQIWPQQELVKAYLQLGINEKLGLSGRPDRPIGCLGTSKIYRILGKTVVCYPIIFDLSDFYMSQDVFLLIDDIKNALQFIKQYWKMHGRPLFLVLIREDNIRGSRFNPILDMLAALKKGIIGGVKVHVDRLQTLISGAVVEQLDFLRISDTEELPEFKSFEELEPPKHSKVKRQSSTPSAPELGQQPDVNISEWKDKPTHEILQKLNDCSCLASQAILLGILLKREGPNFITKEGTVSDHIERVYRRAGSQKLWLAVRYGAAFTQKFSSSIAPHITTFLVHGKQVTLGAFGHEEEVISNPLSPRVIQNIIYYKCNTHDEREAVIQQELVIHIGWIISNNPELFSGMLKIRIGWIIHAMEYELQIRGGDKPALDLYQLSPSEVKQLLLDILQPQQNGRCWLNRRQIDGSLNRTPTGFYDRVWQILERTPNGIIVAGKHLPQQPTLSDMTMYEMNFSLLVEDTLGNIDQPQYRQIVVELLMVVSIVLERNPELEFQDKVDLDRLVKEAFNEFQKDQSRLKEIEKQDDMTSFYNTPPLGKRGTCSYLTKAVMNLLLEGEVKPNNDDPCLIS

What follows are targets tested with Nc1ncnc2c1ncn2[C@@H]1O[C@H](COP(=O)(O)OP(=O)(O)NP(=O)(O)O)[C@@H](O)[C@H]1O [adenylyl imidodiphosphate] (assay: NP40-soluble protein abundance relative to vehicle (solubility fold change) (ratio); higher = more soluble protein in presence of AMP-PNP). Settings: concentration: 0.1mM.
Procedure, shortened: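 Data come from three independent experiments in which Dounce-homogenised Jurkat crude lysate was treated at eight concentrations from 0.1 to 10 mM. Treatment ran 10 min at room temperature and then 3 min at 37 °C, after which 0.8% NP40 and benzonase were added for 60 min at 4 °C before ultracentrifugation. The supernatant underwent TMT labelling and LC-MS/MS, and vsn-normalised intensities were expressed as fold change against the detergent-processed vehicle in each replicate.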
With DNAJC1 (UniProt Q96KC8) the NP40-soluble protein abundance was 1.01 ± 0.028. With UniProt Q96D96 and related entries the NP40-soluble protein abundance was 1 ± 0.04. With UniProt Q96PE3 and related entries the NP40-soluble protein abundance was 1.01 ± 0.043. SENP8 (UniProt Q96LD8) showed an NP40-soluble protein abundance of 1.03 ± 0.013. In the case of WDR92 (UniProt Q96MX6), the NP40-soluble protein abundance is reported as 1.03 ± 0.041. In the case of LPP (UniProt Q93052), the NP40-soluble protein abundance is reported as 0.99 ± 0.028. PPP1R14B (UniProt Q96C90) was tested, and the NP40-soluble protein abundance was 0.985 ± 0.012. For UniProt Q96G28 and related entries, the NP40-soluble protein abundance was 0.984 ± 0.036. For UniProt Q96NC0, the NP40-soluble protein abundance was 0.986 ± 0.042. In the case of RPRD1A (UniProt Q96P16), the NP40-soluble protein abundance is reported as 1.01 ± 0.042. For PAWR (UniProt Q96IZ0), the NP40-soluble protein abundance was 0.976 ± 0.019. UniProt Q969T7 and related entries showed an NP40-soluble protein abundance of 0.984 ± 0.038. In the case of UniProt Q93050 and related entries, the NP40-soluble protein abundance is reported as 0.996 ± 0.021. Work on UniProt Q96CP6 and related entries yielded an NP40-soluble protein abundance of 1.01 ± 0.017. Target TRMT61A (UniProt Q96FX7) has an NP40-soluble protein abundance of 1.03 ± 0.036. UniProt Q96BW9 and related entries showed an NP40-soluble protein abundance of 1.03 ± 0.017. Sirt1 (UniProt Q96EB6) gave an NP40-soluble protein abundance of 0.972 ± 0.014. PTCD3 (UniProt Q96EY7) gave an NP40-soluble protein abundance of 1.06 ± 0.036. For UniProt Q96JP5 and related entries, the NP40-soluble protein abundance was 0.999 ± 0.026. With UniProt Q96K49 and related entries the NP40-soluble protein abundance was 0.965 ± 0.029. In the case of UniProt Q96AG3 and related entries, the NP40-soluble protein abundance is reported as 1 ± 0.029. With GTF3C6 (UniProt Q969F1) the NP40-soluble protein abundance was 1.01 ± 0.055. Work on ZBTB10 (UniProt Q96DT7) yielded an NP40-soluble protein abundance of 1.02 ± 0.017. NARS2 (UniProt Q96I59) was tested, and the NP40-soluble protein abundance was 1 ± 0.039. Work on PPWD1 (UniProt Q96BP3) yielded an NP40-soluble protein abundance of 1.02 ± 0.018. UniProt Q93100 and related entries gave an NP40-soluble protein abundance of 1.03 ± 0.029.
